{"source": "PubChem BioAssay AID504444", "about": "(National Center for Advancing Translational Sciences (NCATS), 2011)", "note": "The whole screen tested about 360,000 compounds, of which about 7,500 (2.1%) were called active. This list was built around the results that the source calls inconclusive (neither active nor inactive); the mix of calls is not that of the screen. The call rests on the fitted dose curve; in most records, active means well fitted inhibition curve with a large enough effect; inconclusive means small, poorly fitted or top-dose-only effect, or effect the other way; inactive means flat fitted curve, though single readings scatter. Where the call is inconclusive, the potency comes from a doubtful curve fit. On the % scale 0 is the no-effect control and ±100 the full control effect; potency means the concentration at half of the fitted maximal effect.", "data": [{"experiment": "Nrf2 qHTS screen for inhibitors; further: nearly all actives have a fitted effect of over 60% in size", "settings": "A549 ARE-Fluc reporter, luciferase luminescence, 18-24 h; activity change, negative = inhibition: at 46 µM (top of the series)", "procedure,_shortened": "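A549 ARE_Fluc cells (5000/well, 5% FBS OPTI-MEM) pre-incubated 2 h, then treated with compounds 18-24 h at 37C/5% CO2 in concentration-response. CellTiter-Fluor viability read first; BugLite luciferase luminescence after 15 min at room temperature gives Nrf2 activity.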", "values": [{"smiles": "CC(C)(C)c1nnc(NC(=O)C2CCN(C(=O)c3ccco3)CC2)s1", "Potency": "inconclusive: 29.1 µM [falling, single point]"}, {"smiles": "CC(C)(C)OC(=O)NCCCCCNC(=O)c1[nH]cnc1C(=O)Nc1ccc(Cl)cc1", "Potency": "active: 16.4 µM"}, {"smiles": "Cc1[nH]n(-c2ccc([N+](=O)[O-])cc2)c(=O)c1C=NCC1CCCO1", "note": "(stereo not drawn)", "Potency": "inconclusive: 20.6 µM [activator, single point]"}, {"smiles": "O=C(COc1ccc(Br)cc1)NNC(=S)NC(=O)c1ccccc1[N+](=O)[O-]", "Potency": "inconclusive: 0.146 µM [falling, full curve]"}, {"smiles": "COc1cccc(/C=N/Nc2ncnc3c2ncn3Cc2ccccc2)c1O", "Potency": "inconclusive: 16.4 µM [falling, partial curve, poor fit]"}, {"smiles": "C[N+]1(CCCCSc2ccc(O)cc2)CCCCC1", "Potency": "inconclusive: 23.1 µM [falling, single point]"}, {"smiles": "Cn1ccc2cc3c(cc21)CCN3C(=O)Nc1cccnc1", "activity change, negative = inhibition": "inactive: 3.45%"}, {"smiles": "Nc1nnc(CC(=O)N/N=C/c2ccc(-c3ccc(F)cc3)o2)s1", "Potency": "inconclusive: 29.1 µM [activator, single point]"}, {"smiles": "c1ccc(-c2noc(-c3ccc4c(c3)OCO4)n2)nc1", "Potency": "inconclusive: 1.84 µM [falling, full curve, poor fit]"}, {"smiles": "COc1ccc(S(=O)(=O)Nc2cccc3cccnc23)cc1", "Potency": "inconclusive: 4.11 µM [falling, full curve, poor fit]"}, {"smiles": "Cc1ccc(-c2cn3nc(-c4ccccc4)c(-c4ccccc4)nc3n2)cc1", "Potency": "inconclusive: 29.1 µM [falling, single point]"}, {"smiles": "O=C(c1ccc(CSc2nc3ccncc3n2Cc2ccc(F)cc2)cc1)N1CCCCCC1", "Potency": "active: 18.4 µM"}, {"smiles": "Cc1ccc(O)c(NC(=O)c2cc(C)no2)c1", "Potency": "inconclusive: 23.1 µM [activator, partial curve]"}, {"smiles": "O=[N+]([O-])c1c(NCCO)cc(Sc2nc3ccccc3s2)c2nonc12", "Potency": "inconclusive: 32.6 µM [falling, single point]"}, {"smiles": "CCOc1ccc(/C=N/NC(=O)c2nnn(-c3nonc3N)c2COc2ccc(F)cc2)cc1", "Potency": "inconclusive: 23.1 µM [falling, single point]"}, {"smiles": "COCCn1c(=O)c2c(nc3n2CCCN3CCc2ccccc2)n(C)c1=O", "activity change, negative = inhibition": "inactive: -26.5%"}, {"smiles": "Cc1ccc(-c2nc3c4ccccc4[nH]c(=O)n3n2)cc1", "Potency": "inconclusive: 1.3 µM [activator, full curve]"}, {"smiles": "Nn1c(SCc2ccccc2F)nnc1-c1ccncc1", "Potency": "inconclusive: 11.6 µM [activator, partial curve]"}, {"smiles": "Cc1cc(OCc2cc(C(=O)N(C)CCOc3ccccc3)no2)cc(C)c1Cl", "Potency": "inconclusive: 16.4 µM [falling, single point]"}, {"smiles": "Cc1cc(C)nc(NS(=O)(=O)c2ccc(NC(=O)C3(c4ccccc4)CCCC3)cc2)n1", "Potency": "inconclusive: 29.1 µM [falling, single point]"}, {"smiles": "COc1ccc(CCNC(=O)COc2ccc(N(C)S(=O)(=O)c3ccc(C)cc3)cc2)cc1OC", "Potency": "active: 25.9 µM"}, {"smiles": "O=C1CC(c2cccc(O)c2)c2c(nc(SCc3ccccc3F)[nH]c2=O)N1", "note": "(stereo not drawn)", "activity change, negative = inhibition": "inactive: 19.8%"}, {"smiles": "Cc1ccnc(NC(=O)/C=C/c2ccccc2Cl)c1", "Potency": "inconclusive: 1.03 µM [activator, full curve]"}, {"smiles": "Cc1ccccc1CSc1nc2n(n1)C(c1cccs1)C1=C(CCCC1=O)N2", "note": "(stereo not drawn)", "Potency": "inconclusive: 18.4 µM [falling, partial curve, poor fit]"}, {"smiles": "CCC(=O)Nc1c(-c2ccc3ccccc3c2)nc2ccccn12", "Potency": "inconclusive: 0.206 µM [activator, full curve, poor fit]"}, {"smiles": "Cc1ccc(-c2ccc(C(=O)O)[nH]2)cc1", "Potency": "inconclusive: 0.411 µM [activator, full curve, poor fit]"}, {"smiles": "CN(Cc1c(C(=O)N/N=C/c2cccs2)nnn1-c1nonc1N)c1ccccc1", "Potency": "inconclusive: 29.1 µM [falling, single point]"}, {"smiles": "O=C(c1ccc(-c2ccccc2Cl)o1)N1CCN(c2ccccc2O)CC1", "activity change, negative = inhibition": "inactive: 7.3%"}, {"smiles": "CCN(CC(=O)Nc1c(F)cccc1F)C(=O)C1CCN(c2ncnc3sc(C)c(C)c23)CC1", "Potency": "inconclusive: 20.6 µM [falling, partial curve]"}, {"smiles": "COc1ccc(COc2ccsc2C(=O)Nc2ccc(Cl)cc2)cc1", "Potency": "inconclusive: 29.1 µM [falling, single point]"}, {"smiles": "O=C(O)CP(=O)(O)O", "activity change, negative = inhibition": "inactive: 0.701%"}, {"smiles": "O=C(Cn1cnnn1)Nc1cccc(S(=O)(=O)N2CCCCC2)c1", "activity change, negative = inhibition": "inactive: -10.3%"}, {"smiles": "O=C(CN(Cc1ccccc1)S(=O)(=O)c1ccccc1)N/N=C/c1ccc2c(c1)OCO2", "Potency": "inconclusive: 29.1 µM [falling, single point]"}, {"smiles": "O=C(c1ccccc1)c1c(-c2ccccc2)[nH]n(-c2ccccc2)c(=O)c1=O", "Potency": "inconclusive: 29.1 µM [falling, single point]"}, {"smiles": "C/C(=N\\NC(=O)C1(C)CC1(Br)Br)c1cccc(NC(=O)C2CCC2)c1", "note": "(stereo not drawn)", "activity change, negative = inhibition": "inactive: -23.1%"}, {"smiles": "O=C(NC(=S)Nc1cccnc1)c1cc2ccccc2o1", "Potency": "inconclusive: 29.1 µM [activator, single point]"}, {"smiles": "O=C(NC(=S)NNC(=O)c1ccccc1O)c1ccc([N+](=O)[O-])cc1", "Potency": "inconclusive: 23.1 µM [falling, partial curve, poor fit]"}, {"smiles": "Cc1cc(NC(=O)c2noc3c2CCc2ccccc2-3)no1", "Potency": "inconclusive: 29.1 µM [activator, single point]"}, {"smiles": "O=C(Nc1nc2ccccc2[nH]1)c1ccccc1", "Potency": "inconclusive: 0.259 µM [activator, full curve, poor fit]"}, {"smiles": "CC(=O)Nc1ccc(NC(=O)c2nc(S(=O)(=O)Cc3cccc(C)c3)ncc2Cl)cc1", "Potency": "inconclusive: 29.1 µM [falling, single point]"}, {"smiles": "S=c1[nH]ncn1/N=C/c1ccc(N2CCOCC2)cc1", "Potency": "inconclusive: 0.0411 µM [activator, full curve, poor fit]"}, {"smiles": "COc1ccc(S(=O)(=O)N2CCCC2CNC(=O)C(=O)NCc2cccs2)cc1", "note": "(stereo not drawn)", "activity change, negative = inhibition": "inactive: -17.6%"}, {"smiles": "CC(=O)Oc1ccc([C@@H]2COc3c(ccc4c3C=CC(C)(C)O4)C2)c(OC(C)=O)c1", "Potency": "inconclusive: 32.6 µM [falling, single point]"}]}]}
